Test results: PubChem BioAssay AID662 (National Center for Advancing Translational Sciences (NCATS), 2007)
Some of the results follow. The main result of the screen is listed elsewhere. These columns were measured beside it and carry no call. The list favours compounds with an active or inconclusive main result. Potencies come from curve fits of mixed quality, noted in brackets.

Assay: Cell signaling CRE-BLA (Fsk stim)
Conditions: CHO CRE-bla reporter (cAMP response element driving beta-lactamase), forskolin EC10, beta-lactamase ratio; measured here: 460 nm blue channel
Method in brief: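 Reporter-gene assay: CHO cells with beta-lactamase behind cAMP responsive elements, co-treated with compound and EC10 NKH 477 for 3 hours at 37 degrees Celsius. Activity came from the 460/530 nm CCF4 emission ratio.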

Structure (SMILES) | AC50
CCOC(=O)C1=C(c2ccccc2)Nc2ncnn2C1c1cc(OC)cc(OC)c1OC (configuration not stated) | 25.1 µM [rising, single point]
CCC(C)c1ccc(NC(=O)c2cccnc2)cc1 (configuration not stated) | 0.00316 µM [falling, full curve, poor fit]
Nc1ccc(-c2nc3ccc(-c4nc5ccccc5o4)cc3[nH]2)cc1 | 12.6 µM [rising, partial curve]
CC(C)CC1(C)NC(=O)N(CCN2C(=O)c3ccccc3C2=O)C1=O (configuration not stated) | 0.0316 µM [falling, full curve, poor fit]
O=C(Nc1ccc2oc(-c3ccncc3)nc2c1)c1cccs1 | 25.1 µM [rising, single point]
COCCn1c(=O)c(C)nc2cnc(N(C)C)nc21 | 10 µM [rising, partial curve]
COc1ccc(S(=O)(=O)N2CCCN(CC(=O)Nc3ccc(OC)c(Cl)c3)CC2)cc1 | 25.1 µM [rising, single point]
COC(=O)C1=C(C)NC(C)=C(C(=O)OC(C)C)C1c1cccc2nonc12 (configuration not stated) | 12.6 µM [rising, partial curve, poor fit]
O=C(OCC(=O)N1CCOCC1)c1ccc2c(c1)OCCO2 | 3.98 µM [falling, single point]
CC[C@@]12CCCN3CCc4c(n(c5ccccc45)[C@](O)(C(=O)OC)C1)[C@H]32 | 5.01 µM [falling, partial curve, poor fit]
COC(=O)c1ccc(CN2CCN(Cc3ccc(C(=O)OC)o3)CC2)o1 | 0.0794 µM [falling, partial curve, poor fit]
c1ccc(-c2nnc(CSc3nc4ccccc4[nH]3)o2)cc1 | 10 µM [rising, single point]
CCCc1cc(N2CCCC(C(=O)Nc3ccc(OC)cc3OC)C2)n2ncnc2n1 (configuration not stated) | 10 µM [rising, single point]
O=C(c1nc2nc(-c3ccc(Cl)cc3)cc(C(F)(F)F)n2n1)N1CCOCC1 | 15.8 µM [rising, partial curve]
COc1cc(OC)c(C(=O)CCCCN2CCC3(CC2)NC(=O)NC3=O)cc1NS(=O)(=O)c1ccc(C(F)(F)F)cc1 | 7.94 µM [rising, partial curve, poor fit]
O=C(COc1ccccc1)N1CCN(C(=O)Cc2ccccc2)CC1 | 0.00794 µM [falling, full curve]
COC(=O)c1cc(=O)nc2sc3ccccc3n12 | 12.6 µM [rising, partial curve]
Cn1cc(-c2nc3cnc(N4CCNCC4)nc3n(C)c2=O)c2ccccc21 | 12.6 µM [rising, partial curve]
Cc1ccc(CNC(=O)C2C3C=CC4(CN(Cc5cccnc5)C(=O)C24)O3)cc1 (configuration not stated) | 0.02 µM [rising, full curve, poor fit]
Cc1ccc(S(=O)(=O)c2nc(-c3ccccc3)oc2NCc2cccnc2)cc1 | 12.6 µM [rising, single point]
CCCCNC(=O)c1ccc(N2CCOCC2)c(NS(=O)(=O)c2ccc(OC)cc2)c1 | 20 µM [rising, single point]

No new results follow: 2 of the compounds above.
Structure (SMILES) | AC50
Cc1ccc(S(=O)(=O)c2nc(-c3ccccc3)oc2NCc2cccnc2)cc1 | 12.6 µM [rising, single point]
CCCCNC(=O)c1ccc(N2CCOCC2)c(NS(=O)(=O)c2ccc(OC)cc2)c1 | 20 µM [rising, single point]

Next records

Structure (SMILES) | AC50
COc1cccc(Nc2ncc3nc(-c4cn(C)c5ccccc45)c(=O)n(CCC#N)c3n2)c1 | 12.6 µM [rising, partial curve]
CC(C)Sc1nc2c(c(=O)n1C)SC(C)C2 (configuration not stated) | 12.6 µM [rising, partial curve, poor fit]
COc1ccc(-n2c(=O)c(-c3ccc(F)cc3)nc3cnc(OC)nc32)cc1 | 3.98 µM [rising, single point]
O=C(NCCc1ccc2c(c1)OCCO2)c1cc2ccccc2o1 | 25.1 µM [falling, single point]
COc1cc(CN2CCN(c3cccc(C)c3C)CC2)cc(Br)c1O | 0.00398 µM [falling, full curve, poor fit]
CCOC(=O)c1c(C)nc2c3ccccc3ccn12 | 3.16 µM [rising, full curve]
CCOC(=O)c1c(NC(=O)c2cccs2)sc(C(=O)N2CCOCC2)c1C | 3.16 µM [rising, full curve, poor fit]
COC(=O)CSc1nc(NCC(C)C)nc(N2CCOCC2)n1 | 7.94 µM [rising, partial curve]
Brc1ccc2oc3c(N4CCOCC4)ncnc3c2c1 | 6.31 µM [rising, partial curve]
O=C(Cn1c(C(=O)NCc2ccco2)cc2sccc21)c1ccccc1 | 15.8 µM [falling, partial curve]
O=c1[nH]c(Cn2nnc(-c3ccccc3)n2)nc2scc(-c3ccccc3)c12 | 5.01 µM [falling, single point]
COc1cccc2c(=O)c(C(=O)NCc3cccs3)c[nH]c12 | 12.6 µM [rising, partial curve]
CC(C)NC(=O)COC(=O)c1ccc(O)cc1 | 0.1 µM [falling, single point]
COc1ccc(-c2noc(COc3ccc4c(c3)OCO4)n2)cc1OC | 6.31 µM [rising, partial curve, poor fit]
CN1CCN(c2ncc3nc(-c4cccc(C#N)c4)c(=O)n(Cc4ccc(F)cc4)c3n2)CC1 | 5.01 µM [rising, partial curve]
COc1ccc2[nH]cc(CCNc3cc(-c4cccnc4)ncn3)c2c1 | 12.6 µM [rising, partial curve, poor fit]
Cc1c(C)c2ccc(OCc3ccc(C(=O)O)o3)c(C)c2oc1=O | 25.1 µM [rising, single point]
CCOC(=O)C1CCN(c2ncnc3c2oc2ccccc23)CC1 | 5.01 µM [rising, partial curve]
COc1ccc(-c2noc(-c3cc(Cl)ccc3Cl)n2)cc1OC | 0.631 µM [rising, full curve, poor fit]
CCCSc1nnc(N2C(=O)CC(c3ccsc3)C3=C2CCCC3=O)s1 (configuration not stated) | 12.6 µM [rising, single point]
Cc1nc2c(C(=O)NCCC3=CCCCC3)c[nH]n2c(=O)c1Cl | 7.94 µM [rising, partial curve]
